In article doi:10.1101/2020.08.13.249722:
No constants are given. Whether binding was seen depends on the method and setting. Binding calls can cover weak binding; strength is not graded here.

Key:
[1] = molecular target: T1, cyclo[M-AFRLC-K]-Toyopearl; assay: bind-and-elute on peptide resin
T1 sequence (peptide, cyclo[M-AFRLC-K], cyclised between M and K; C-terminus linked to Toyopearl resin): MAFRLCKGSG

[2] = molecular target: T2, …-Toyopearl (PTCH peptide, positive control); assay: equilibrium adsorption isotherm on peptide resin
T2 sequence (peptide, linked to Toyopearl resin): RYSPPPPYSSHS

…-Toyopearl [3] = molecular target: T3, …-Toyopearl; assay: equilibrium adsorption on peptide resin
T3 sequence (peptide, C-terminus linked to Toyopearl resin): MDGNLSGIMPVKGSG

…-Toyopearl [4] = molecular target: T4, …-Toyopearl; assay: equilibrium adsorption on peptide resin; remark: listed apart in the source
T4 sequence (peptide, C-terminus linked to Toyopearl resin): MYRGDPETCVDKGSG

“tandem WW domain of Yes-Associated Protein 1 (WW-YAP), soluble recombinant human protein (domain or fragment)” was tested, and the binding [1] was “binds”, the binding [2] was “binds” and the binding (…-Toyopearl [3]) was “binds weakly”. The binding (…-Toyopearl [4]) was “binds weakly”.
